Taken from: PubChem BioAssay AID1508588 (Peter MacCallum Cancer Centre, 2020)

Purpose: 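Genome-wide search for knock-downs that heighten vemurafenib action in melanoma cells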 (primary screen)
System: human WM266.4 melanoma cells (BRAF V600 mutant)
Reagents: siRNA pool against human genes, 40 nM
Duration: 96 h from transfection to read-out
Treatment: vemurafenib 300 nM (about IC25), added 48 h after transfection, for 48 h; comparison arm got DMSO vehicle only
Measurement: 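Ratios to non-targeting siRNA for cell gain, counted as DAPI nuclei after minus before drug and averaged over two replicates, and for absorbance-read medium lactate per cell; both binned into fold-change classes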
Scale: cell gain with vemurafenib: higher = more cell gain than with non-targeting siRNA; lactate per cell with vemurafenib: higher = more lactate made per cell
Hit rule: 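Enhancement is called by pairing each knock-down's vehicle-arm and drug-arm fold-change classes for viability or glycolysis; which class combinations qualify is not given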
Calls: active = enhances vemurafenib effect; inactive = no enhancement seen
The whole screen tested about 18,000 reagents; below is a random part of them. Over the whole deposit, 790 (4.4%) are marked active. 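Calls rest on a combination of fold-change classes in drug and vehicle arms, not all shown here.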 A number with no mark means an inactive call.

The opening 10 entries, ahead of the listing:
no.	gene symbol	cell gain with vemurafenib	lactate per cell with vemurafenib
1	CHRM3	0.64	1.19
2	PAIP2	0.75	1.48
3	ARHGEF35	0.4	0.52
4	COMMD2	0.51	0.94
5	PTPN3	0.34	1.16
6	OR14I1	0.39	1.5
7	RBMY1D	1.28	0.6
8	PCF11	-0.07	1.36
9	SBSN	1.08	0.51
10	RTF2	0.66	1.27

The list itself, from the first entry:
no.	gene symbol	cell gain with vemurafenib	lactate per cell with vemurafenib
1	CHRM3	0.64	1.19
2	PAIP2	0.75	1.48
3	ARHGEF35	0.4	0.52
4	COMMD2	0.51	0.94
5	PTPN3	0.34	1.16
6	OR14I1	0.39	1.5
7	RBMY1D	1.28	0.6
8	PCF11	-0.07	1.36
9	SBSN	1.08	0.51
10	RTF2	0.66	1.27
11	TJP2	0.48	2.06
12	MFN1	0.78	0.88
13	MED29	0.53	0.7
14	SRR	0.57	1.25
15	ZNF830	0.26	1.4
16	CSH2	0.9	0.96
17	CBR1	0.37	1.23
18	ENPP6	0.11	0.61
19	CLEC9A	0.3	1.55
20	EXOC3L4	0.59	1
21	RPL3L	0.24	0.42
22	PTER	0.48	0.6
23	SAMD9L	0.78	0.62
24	RASA3	1.23	0.9
25	EFNA3	0.29	0.87
26	TMTC3	1.1	0.85
27	ZNF721	0.69	1.05
28	RPS6KA1	0.31	1.11
29	KRT26	0.06	2.63
30	PRNT	0.12	1.77
31	LYZL2	0.54	0.71
32	AMY1B	0.49	0.84
33	AP3B2	0.59	1.36
34	PNLDC1	0.45	1.46
35	TAC3	0.77	0.81
36	FLCN	0.27	1.41
37	JPH4	1.41	0.58
38	AKAP14	0.6 (active)	0.43
39	ANO4	0.9	0.5
40	FOXN2	0.93	0.65
41	ST6GALNAC3	0.9	1.52
42	CLASP1	0.76	0.46
43	COPS7B	0.55	0.82
44	ANKRD26	0.74 (active)	0.01
45	OTUB2	0.33	1.71
46	ELL	0.65	0.92
47	NPHP4	0.82	0.76
48	OR2T5	0.43	0.24
49	TMEM69	0.7	0.45
50	PPM1H	1.06	1.12
51	TPSG1	1.41	0.4
52	PEX1	0.74	1.1
53	MLKL	0.38	0.8
54	ZNF358	0.15	1.95
55	CHAC2	0.29	2.76
56	CD37	0.53	1.07
57	BTLA	0.69	1.02
58	POP7	0.88	0.94
59	TMEM183A	0.37	1.17
60	EPHA5	1.04	0.57
61	KIAA0232	0.32	1.4
62	EIF3A	0.08	1.17
63	WDR82	0.65	1.12
64	MAK16	0.38	0.82
65	FAM177A1	0.28	1.25
66	NDST3	0.17 (active)	0.7
67	FZD10	0.24	0.57
68	SERPING1	0.03	1.71
69	RALY	0.09	3.1
70	ADAM21	0.09	1.17
71	C5orf34	0.53	1.05
72	DSTYK	0.72	0.53
73	RPL27	-0.04	1.64
74	IQGAP3	0.54	0.98
75	CFAP44	0.92	0.82
76	SCN1A	0.5	0.9
77	SLC14A2	0.35	1.06
78	TMEM252	0.73	0.72
79	PKP3	0.94	1.15
80	MINDY1	0.86	1.03
81	BTF3L4	0.97	0.57
82	LRRC4C	0.92	0.84
83	RFPL1	0.86	0.8
84	VRK3	0.68	0.64
